In article PMC12799961:
No constants are given. Whether binding was seen depends on the method and setting. In cells and extracts the contact can be indirect. Some binding calls cover weakened binding; strength is not graded here.

Chains of the proteins cited; added tags and fusions are not shown. Lines headed by an entry give the natural chain unless they say otherwise; changes in a name come on top.
UniProt Q9NZN5: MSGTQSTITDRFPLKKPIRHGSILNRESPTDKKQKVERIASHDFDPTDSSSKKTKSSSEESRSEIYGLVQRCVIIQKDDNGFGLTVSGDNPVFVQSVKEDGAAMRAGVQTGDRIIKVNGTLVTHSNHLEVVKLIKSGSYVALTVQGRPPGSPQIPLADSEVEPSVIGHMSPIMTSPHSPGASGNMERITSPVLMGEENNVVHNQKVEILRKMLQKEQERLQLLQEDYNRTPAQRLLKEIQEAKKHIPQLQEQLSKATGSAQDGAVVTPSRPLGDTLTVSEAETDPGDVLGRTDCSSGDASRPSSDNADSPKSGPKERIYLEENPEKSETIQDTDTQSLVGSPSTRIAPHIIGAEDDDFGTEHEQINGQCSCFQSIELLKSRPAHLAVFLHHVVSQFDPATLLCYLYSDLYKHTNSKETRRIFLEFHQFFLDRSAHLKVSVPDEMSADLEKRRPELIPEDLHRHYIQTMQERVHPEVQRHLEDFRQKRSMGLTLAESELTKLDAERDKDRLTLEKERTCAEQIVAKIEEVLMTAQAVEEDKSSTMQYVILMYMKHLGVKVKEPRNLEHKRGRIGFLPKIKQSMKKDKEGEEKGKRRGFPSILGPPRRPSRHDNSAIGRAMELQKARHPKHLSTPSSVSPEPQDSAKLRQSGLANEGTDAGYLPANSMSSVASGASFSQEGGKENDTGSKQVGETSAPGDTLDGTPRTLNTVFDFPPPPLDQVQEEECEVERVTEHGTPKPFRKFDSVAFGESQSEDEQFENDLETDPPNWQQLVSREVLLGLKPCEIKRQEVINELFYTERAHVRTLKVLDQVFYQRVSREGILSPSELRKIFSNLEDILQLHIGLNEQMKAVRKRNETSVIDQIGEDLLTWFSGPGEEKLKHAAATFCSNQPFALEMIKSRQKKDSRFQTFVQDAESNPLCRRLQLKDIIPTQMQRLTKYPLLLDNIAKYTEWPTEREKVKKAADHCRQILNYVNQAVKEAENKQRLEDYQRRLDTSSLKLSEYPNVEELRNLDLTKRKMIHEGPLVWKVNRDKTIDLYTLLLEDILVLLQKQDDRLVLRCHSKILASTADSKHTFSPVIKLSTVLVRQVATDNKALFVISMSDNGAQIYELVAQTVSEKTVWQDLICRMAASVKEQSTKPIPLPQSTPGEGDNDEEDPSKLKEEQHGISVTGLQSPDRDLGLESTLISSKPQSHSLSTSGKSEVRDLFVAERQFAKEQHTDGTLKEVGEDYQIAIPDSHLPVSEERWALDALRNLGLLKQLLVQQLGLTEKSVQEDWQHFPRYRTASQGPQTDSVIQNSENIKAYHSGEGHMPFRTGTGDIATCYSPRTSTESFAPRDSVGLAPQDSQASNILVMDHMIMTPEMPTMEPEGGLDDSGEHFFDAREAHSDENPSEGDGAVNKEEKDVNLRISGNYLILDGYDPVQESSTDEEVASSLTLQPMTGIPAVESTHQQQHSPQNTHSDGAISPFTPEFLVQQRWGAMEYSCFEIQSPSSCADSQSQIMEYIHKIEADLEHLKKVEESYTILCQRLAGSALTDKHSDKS

Assays:
Myc-LARG-S1288A = Myc-LARG-S1288A (UniProt Q9NZN5); assay: co-IP; U87 MG cells transfected with Myc-LARG-WT or Myc-LARG-S1288A for 24 h, then with GFP-LARG-WT, 48 h more; Myc-tagged LARG immunoprecipitated, blot for GFP
[1] = target: Myc-LARG-WT (leukemia-associated RhoGEF, ARHGEF12, wild type) (UniProt Q9NZN5); assay: as above

binding (Myc-LARG-S1288A): binds | binding [1]: binds
Substance: GFP-LARG-WT (from UniProt Q9NZN5 1-1544)
